Assay results: patent US20140323575A1, “TYROSINE ISOMERS AS THERAPEUTIC AGENTS” (CONSEJO NACIONAL DE INVESTIGACIONES CIENTIFICAS Y TECNICAS …, priority 2011, published 2014)
For at least one compound, name, drawing or mass did not settle the structure.

System: inhibitory activity present in serum from LB tumor-bearing mice
Test: Titer of growth-inhibitory activity in serum from drug-treated LB tumor-bearing mice
Format: in vivo
Conditions: treatment of LB tumor-bearing mice

SMILES: C[C@@H]1C[C@H]2[C@@H]3CCC4=CC(=O)C=C[C@]4(C)[C@@]3(F)[C@@H](O)C[C@]2(C)[C@@]1(O)C(=O)CO [Dexamethasone, dexamethasone]
- effect on serum inhibitory activity of LB tumor-bearing mice: significant reduction
